Measurements taken from patent EP3071301B1, “QUERCUS PLANT EXTRACT AS ACTIVE AGENT WITH SKIN ANTI-AGEING PROPERTIES AND COSMETIC COMPOSITIONS CONTAINING IT” (Charlois Cosmetiques, priority 2013, dated 2015).

Legend:
[1] = Hydrogen peroxide assay (Amplex Red Hydrogen Peroxide/Peroxidase kit); conditions: 50 µM
Excerpt: Le principe actif E2 conforme à l'invention est soumis au test suivant, à des concentrations de 0,1; 0,3; 0,5; 1; 3 % p/p (% en poids de principe actif à tester, par rapport au poids final de milieu contenant le principe actif).
L'essai est réalisé au moyen du kit de dosage Amplex® Red Hydrogen Peroxyde/Peroxydase Assay Kit (Molecular Probes®), dont le réactif 10-acétyl-3,7-dihydroxyphénoxazine est utilisé pour déterminer la quantité de peroxyde d'hydrogène présent. Le substrat non coloré réagit avec le peroxyde d'hydrogène (H2O2) dans un rapport stoechiométrique 1:1 pour produire de la résofurine hautement fluorescente. […]
Le principe actif selon l'invention et le BHA (3-tert-butyl-4-hydroxyanisole), en tant que témoin, à une concentration de 50 µM, sont incubés en présence d'H2O2, de réactif Amplex® Red et d'enzyme Horse Radish Peroxydase (HRP) pendant 30 min à température ambiante. Puis la fluorescence est mesurée, pour une longueur d'onde d'excitation de 540 nm et une longueur d'onde d'émission de 590 nm.
Des contrôles d'auto-fluorescence et d'absorption de fluorescence (quenching) sont aussi réalisés pour chaque concentration de principe actif selon l'invention et du témoin. Les contrôles d'absorption de fluorescence sont réalisés en incubant le peroxyde d'hydrogène (H2O2), le réactif Amplex® Redet l'enzyme HRP pendant 30 min. […]

[2] = system: MMP totales; assay: Total matrix metalloprotease (MMP) activity inhibition, fluorogenic peptide; assay type: biochemical, humains; conditions: quenching control
Excerpt: Le principe actif E2 conforme à l'invention est soumis au test suivant, à des concentrations de 1 et 3 % p/p, selon le protocole décrit dans la publication de Sim et al., 2007, Arch Pharm Res, 30(3): 290-298.
Les MMP totales (obtenues selon un protocole standard à partir de surnageants de fibroblastes dermiques humains normaux, irradiés avec des UVB (20 mJ/cm^2)) sont traitées par le mélange inflammatoire acétate de phorbol myristate (PMA) et facteur de nécrose tumorale (TNFα).
Le substrat fluorescent est le peptide fluorogénique décrit dans la publication de Lee et al., 1999, Annals of the New York Academy of Sciences, 878: 635-637, et commercialisé sous la référence M6412 par la société Sigma-Aldrich.
Le principe actif E2 conforme à l'invention ou le témoin (O-phénantroline testée à 0,03; 0,1; 0,3 et 1 mM) sont préincubés pendant 10 min sur glace en présence des MMP totales activées, puis le substrat fluorescent est ajouté. Les plaques ont été incubées pendant 3h à 37°C. Un contrôle d'interférence du composé (composé en présence du mélange réactionnel sans enzyme) et un contrôle « quenching » (mélange réactionnel contenant le substrat et l'enzyme dans lequel le composé n'est ajouté qu'en fin d'incubation) ont été réalisés en parallèle. Le contrôle […] permet de vérifier l'absorption non spécifique de la fluorescence par le composé et donc la spécificité de l'inhibition observée dans la condition test correspondante.
Chaque expérience est tripliquée.
A la fin de l'incubation, la fluorescence produite suite à la dégradation du substrat est mesurée par fluorimétrie pour une longueur d'onde d'excitation de 328 nm et une longueur d'onde d'émission de 393 nm, au moyen du dispositif SpectroMax Gemini, Molecular Devices.
Le % d'inhibition des MMPs totales est calculé pour chaque échantillon testé. Les résultats obtenus sont montrés dans le tableau 6 ci-après. Tableau 6 - Inhibition de l'activité des MMP totales par le principe actif E2 conforme à l'invention

Structure (SMILES) | Intensité de fluorescence (UA) ([1]; fluorescence absorption (quenching) control) | % quenching ([1]; quenching control) | Quenching (%) ([2]; 0,1 mM) | Quenching (%) ([2]; 0,03 mM) | Quenching (%) ([2]; 0,3 mM) | Quenching (%) ([2]; 1 mM)
COc1ccc(O)c(C(C)(C)C)c1 [BHA, 3-tert-butyl-4-hydroxyanisole] | 3007 UA | 1% |  |  |  | 
c1cnc2c(c1)ccc1cccnc12 [O-Phénanthroline] |  |  | 7% | 3% | 11% | 27%
